These results are taken from article PMC3701667.

These are yes or no findings as the source states them, for the method shown. Binding seen in cells or lysates may run through a third protein. Binding calls can cover weak binding; strength is not graded here. Sequences can lack the tags named with a protein.

The assay concerns the target T1, Flag-tagged human pyruvate carboxylase, wild type (human) (UniProt P11498).
T1 sequence: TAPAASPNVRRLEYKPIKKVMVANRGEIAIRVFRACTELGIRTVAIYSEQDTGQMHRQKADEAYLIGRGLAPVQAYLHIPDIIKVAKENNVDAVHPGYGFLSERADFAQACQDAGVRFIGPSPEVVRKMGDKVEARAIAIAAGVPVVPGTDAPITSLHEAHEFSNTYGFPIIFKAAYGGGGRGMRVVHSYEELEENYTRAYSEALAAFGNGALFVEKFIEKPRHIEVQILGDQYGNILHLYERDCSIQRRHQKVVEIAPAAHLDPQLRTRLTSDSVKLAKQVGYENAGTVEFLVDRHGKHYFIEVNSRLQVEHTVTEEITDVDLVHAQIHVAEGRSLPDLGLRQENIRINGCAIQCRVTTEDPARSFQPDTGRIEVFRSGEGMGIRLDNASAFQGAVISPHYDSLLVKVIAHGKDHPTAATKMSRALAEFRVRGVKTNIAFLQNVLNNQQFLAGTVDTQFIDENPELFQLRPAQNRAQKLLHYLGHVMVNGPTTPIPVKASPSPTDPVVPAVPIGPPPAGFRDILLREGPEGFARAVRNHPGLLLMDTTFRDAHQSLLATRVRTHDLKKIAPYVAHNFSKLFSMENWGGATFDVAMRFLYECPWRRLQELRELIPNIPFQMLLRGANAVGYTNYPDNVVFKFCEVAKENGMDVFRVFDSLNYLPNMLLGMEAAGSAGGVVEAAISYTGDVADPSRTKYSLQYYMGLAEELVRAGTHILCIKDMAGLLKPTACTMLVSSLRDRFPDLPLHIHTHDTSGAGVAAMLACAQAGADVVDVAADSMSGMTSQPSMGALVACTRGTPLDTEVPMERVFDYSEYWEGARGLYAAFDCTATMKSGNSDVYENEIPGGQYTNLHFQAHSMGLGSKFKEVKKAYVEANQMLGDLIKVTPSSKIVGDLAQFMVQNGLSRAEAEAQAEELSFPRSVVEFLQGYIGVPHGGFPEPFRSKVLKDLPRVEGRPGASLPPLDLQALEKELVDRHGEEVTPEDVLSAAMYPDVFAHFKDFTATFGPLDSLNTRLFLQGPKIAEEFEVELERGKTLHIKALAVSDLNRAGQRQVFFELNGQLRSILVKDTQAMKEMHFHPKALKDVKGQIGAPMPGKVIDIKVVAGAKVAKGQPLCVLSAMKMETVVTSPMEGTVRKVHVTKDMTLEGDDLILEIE
As to the kind of experiment: co-IP; HEK293T cells cotransfected, lysates at 24 h; immunoprecipitated with anti-Flag antibody, blotted with anti-Myc antibody.

For “Myc-tagged N-terminal region (1-146) of NS5A, genotype 1b (hepatitis C virus genotype 1b) (domain or fragment)”, the binding entry is recorded as “binds”.
